The results in this text go back to paper PMC10482750.

Data set [1] concerns RNA polymerase II (FLAG-Rpb1) + DSIF NGN-C.e. The data set can be described thus: EMSA. The settings on record: Pol II EC, no change vs WT; none; Premix (15 ul) 50 mM HEPES pH 7.5, 200 mM KCl, 1 mM MnCl2, 12% glycerol, 0.5 mM DTT, 0.5 mM UpG, 66 ng/ul BSA, ~4 ng template, ~80 ng Pol II; native protein; label: 5'-Cy5 on bottom strand (strand 1).
Data set [2] has as its system RNA polymerase II (FLAG-Rpb1) + DSIF Spt4 (R79E, R82E, K109E). Description: EMSA. The settings on record: Pol II EC, no change vs WT; none; Premix (15 ul) 50 mM HEPES pH 7.5, 200 mM KCl, 1 mM MnCl2, 12% glycerol, 0.5 mM DTT, 0.5 mM UpG, 66 ng/ul BSA, ~4 ng template, ~80 ng Pol II; native protein; label: 5'-Cy5 on bottom strand (strand 1). For orientation: In EMSA bound probe runs differently from free probe, usually more slowly.

For data set [3], the system named is RNA polymerase II (FLAG-Rpb1) + DSIF NGN-S.c. Description: EMSA. The settings on record: Pol II EC, no change vs WT; none; Premix (15 ul) 50 mM HEPES pH 7.5, 200 mM KCl, 1 mM MnCl2, 12% glycerol, 0.5 mM DTT, 0.5 mM UpG, 66 ng/ul BSA, ~4 ng template, ~80 ng Pol II; native protein; label: 5'-Cy5 on bottom strand (strand 1).
In data set [4] the test system is RNA polymerase II (FLAG-Rpb1) + DSIF NGN-K.p. The data set can be described thus: EMSA. To be noted: Pol II EC, no change vs WT; none; Premix (15 ul) 50 mM HEPES pH 7.5, 200 mM KCl, 1 mM MnCl2, 12% glycerol, 0.5 mM DTT, 0.5 mM UpG, 66 ng/ul BSA, ~4 ng template, ~80 ng Pol II; native protein; label: 5'-Cy5 on bottom strand (strand 1).
Data set [5] has as its system RNA polymerase II (FLAG-Rpb1) + NELF (NELF-A, -B, -D, -E). Description: EMSA. To be noted: NELF alone added to preformed Pol II EC, no DSIF: no shift; none; Premix (15 ul) 50 mM HEPES pH 7.5, 200 mM KCl, 1 mM MnCl2, 12% glycerol, 0.5 mM DTT, 0.5 mM UpG, 66 ng/ul BSA, ~4 ng template, ~80 ng Pol II; native protein; label: 5'-Cy5 on bottom strand (strand 1).
Data set [6] relates to RNA polymerase II (FLAG-Rpb1) + DSIF KOW2-3-S.c. Description: EMSA. The settings on record: Pol II EC, no change vs WT; none; Premix (15 ul) 50 mM HEPES pH 7.5, 200 mM KCl, 1 mM MnCl2, 12% glycerol, 0.5 mM DTT, 0.5 mM UpG, 66 ng/ul BSA, ~4 ng template, ~80 ng Pol II; native protein; label: 5'-Cy5 on bottom strand (strand 1).
For data set [7], the system named is RNA polymerase II (FLAG-Rpb1) + DSIF KOW4-Asp. Description: EMSA. To be noted: Pol II EC, no change vs WT; none; Premix (15 ul) 50 mM HEPES pH 7.5, 200 mM KCl, 1 mM MnCl2, 12% glycerol, 0.5 mM DTT, 0.5 mM UpG, 66 ng/ul BSA, ~4 ng template, ~80 ng Pol II; native protein; label: 5'-Cy5 on bottom strand (strand 1).
Data set [8] deals with RNA polymerase II (FLAG-Rpb1) + DSIF WT (Spt5-Spt4). The data set can be described thus: EMSA. To be noted: DSIF: 0.7 pmol no shift, 1.4 pmol incomplete, 2.8 pmol complete shift of Pol II EC; none; Premix (15 ul) 50 mM HEPES pH 7.5, 200 mM KCl, 1 mM MnCl2, 12% glycerol, 0.5 mM DTT, 0.5 mM UpG, 66 ng/ul BSA, ~4 ng template, ~80 ng Pol II; native protein; label: 5'-Cy5 on bottom strand (strand 1).

Data set [9] deals with RNA polymerase II (FLAG-Rpb1) + DSIF NGN-K.p._R. Description: EMSA. To be noted: Pol II EC, no change vs WT; none; Premix (15 ul) 50 mM HEPES pH 7.5, 200 mM KCl, 1 mM MnCl2, 12% glycerol, 0.5 mM DTT, 0.5 mM UpG, 66 ng/ul BSA, ~4 ng template, ~80 ng Pol II; native protein; label: 5'-Cy5 on bottom strand (strand 1).
For data set [10], the system named is RNA polymerase II (FLAG-Rpb1) + DSIF WT (Spt5-Spt4) + NELF (NELF-A, -B, -D, -E). Description: EMSA supershift. The settings on record: NELF recruitment, sharper supershift at 2.8 than 1.4 pmol DSIF; none; Premix (15 ul) 50 mM HEPES pH 7.5, 200 mM KCl, 1 mM MnCl2, 12% glycerol, 0.5 mM DTT, 0.5 mM UpG, 66 ng/ul BSA, ~4 ng template, ~80 ng Pol II; native protein; label: 5'-Cy5 on bottom strand (strand 1).

In data set [11] the test system is RNA polymerase II (FLAG-Rpb1) + DSIF NGN-C.e. + NELF (NELF-A, -B, -D, -E). The data set can be described thus: EMSA supershift. The settings on record: NELF recruitment comparable to WT; none; Premix (15 ul) 50 mM HEPES pH 7.5, 200 mM KCl, 1 mM MnCl2, 12% glycerol, 0.5 mM DTT, 0.5 mM UpG, 66 ng/ul BSA, ~4 ng template, ~80 ng Pol II; native protein; label: 5'-Cy5 on bottom strand (strand 1).

The subject of data set [12] is RNA polymerase II (FLAG-Rpb1) + DSIF NGN-S.c. + NELF (NELF-A, -B, -D, -E). The data set can be described thus: EMSA supershift. To be noted: NELF recruitment comparable to WT; none; Premix (15 ul) 50 mM HEPES pH 7.5, 200 mM KCl, 1 mM MnCl2, 12% glycerol, 0.5 mM DTT, 0.5 mM UpG, 66 ng/ul BSA, ~4 ng template, ~80 ng Pol II; native protein; label: 5'-Cy5 on bottom strand (strand 1).

The subject of data set [13] is RNA polymerase II (FLAG-Rpb1) + DSIF NGN-K.p._R + NELF (NELF-A, -B, -D, -E). The data set can be described thus: EMSA supershift. To be noted: NELF recruitment; none; Premix (15 ul) 50 mM HEPES pH 7.5, 200 mM KCl, 1 mM MnCl2, 12% glycerol, 0.5 mM DTT, 0.5 mM UpG, 66 ng/ul BSA, ~4 ng template, ~80 ng Pol II; native protein; label: 5'-Cy5 on bottom strand (strand 1).
In data set [14] the test system is RNA polymerase II (FLAG-Rpb1) + DSIF KOW4-Asp + NELF (NELF-A, -B, -D, -E). Description: EMSA supershift. The settings on record: NELF recruitment; none; Premix (15 ul) 50 mM HEPES pH 7.5, 200 mM KCl, 1 mM MnCl2, 12% glycerol, 0.5 mM DTT, 0.5 mM UpG, 66 ng/ul BSA, ~4 ng template, ~80 ng Pol II; native protein; label: 5'-Cy5 on bottom strand (strand 1).
Data set [15] has as its system RNA polymerase II (FLAG-Rpb1) + DSIF NGN-K.p. + NELF (NELF-A, -B, -D, -E). Description: EMSA supershift. To be noted: NELF recruitment comparable to WT; none; Premix (15 ul) 50 mM HEPES pH 7.5, 200 mM KCl, 1 mM MnCl2, 12% glycerol, 0.5 mM DTT, 0.5 mM UpG, 66 ng/ul BSA, ~4 ng template, ~80 ng Pol II; native protein; label: 5'-Cy5 on bottom strand (strand 1).
The subject of data set [16] is RNA polymerase II (FLAG-Rpb1) + DSIF Spt4 (R79E, R82E, K109E) + NELF (NELF-A, -B, -D, -E). The data set can be described thus: EMSA supershift. To be noted: NELF recruitment no change vs WT; none; Premix (15 ul) 50 mM HEPES pH 7.5, 200 mM KCl, 1 mM MnCl2, 12% glycerol, 0.5 mM DTT, 0.5 mM UpG, 66 ng/ul BSA, ~4 ng template, ~80 ng Pol II; native protein; label: 5'-Cy5 on bottom strand (strand 1).

For data set [17], the system named is RNA polymerase II (FLAG-Rpb1) + DSIF KOW2-3-S.c. + NELF (NELF-A, -B, -D, -E). The data set can be described thus: EMSA supershift. To be noted: NELF recruitment decreased; none; Premix (15 ul) 50 mM HEPES pH 7.5, 200 mM KCl, 1 mM MnCl2, 12% glycerol, 0.5 mM DTT, 0.5 mM UpG, 66 ng/ul BSA, ~4 ng template, ~80 ng Pol II; native protein; label: 5'-Cy5 on bottom strand (strand 1).

The exact form of at least one protein or probe is not confirmed. For some assays here: A negative result means that nothing was seen under these conditions. For some assays here: The comparison behind a weaker result is the experiment's own reference, which may not be listed here.

As to “GCAGGTCGACTCTAGAGGATCCCGGGAGTGGAATGAGAAATGAAGATCAAAAAAAATTA / GATCTTCATTTCTCATTCCACTCCCGGGATCCTCTAGAGTCGACCTGC”, the binding result in data set [1] was “binds”; in [2], “binds”; in [3], “binds”; in data set [4] it was “binds”; in data set [5], “no binding”; in data set [6], “binds”. In addition, the binding result in data set [7], in data set [8], in data set [9], in [10], in data set [11] and in data set [12] was “binds” in each case. For the same sequence, the binding result in data set [13] was “binds”; in data set [14], “binds”; in data set [15], “binds”; in [16], “binds”; in data set [17], “binds more weakly”.
